Earlier results on two sequences are cited in patent US20160024130.

Amino acid sequences for entries named in this document (tags omitted). A change or cut given only in a name is not applied to a line headed by its entry.
UniProt Q01543: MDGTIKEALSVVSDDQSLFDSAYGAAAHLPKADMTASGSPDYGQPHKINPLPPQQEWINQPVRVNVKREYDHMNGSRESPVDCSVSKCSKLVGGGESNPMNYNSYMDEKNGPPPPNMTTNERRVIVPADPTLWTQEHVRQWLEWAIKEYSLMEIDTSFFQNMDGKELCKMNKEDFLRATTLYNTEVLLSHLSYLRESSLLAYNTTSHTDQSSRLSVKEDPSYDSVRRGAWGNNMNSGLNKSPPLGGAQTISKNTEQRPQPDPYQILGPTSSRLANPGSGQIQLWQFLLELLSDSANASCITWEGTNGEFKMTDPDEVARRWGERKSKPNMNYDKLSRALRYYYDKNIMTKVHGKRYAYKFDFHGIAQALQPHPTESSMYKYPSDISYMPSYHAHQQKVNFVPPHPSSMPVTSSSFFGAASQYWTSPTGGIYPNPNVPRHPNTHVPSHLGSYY

Where a chain is given by its changes, count along the chain named. The exact form of at least one protein or probe is not confirmed. For some assays here: Protein sequences can lack the tags named with them.

One series addresses T1, ERG DNA binding domain (UniProt P11308).
T1 sequence (limits assumed): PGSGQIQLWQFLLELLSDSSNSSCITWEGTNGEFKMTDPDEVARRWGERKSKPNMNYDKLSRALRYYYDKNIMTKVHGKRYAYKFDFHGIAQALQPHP
Nature of the series: structure. The conditions noted are these: CITED Regan et al. 2013 crystal structure; purified recombinant protein; only the motif is given.

A further series concerns EWS-FLI1. Briefly: binding assay. The conditions noted are these: data not shown; method not stated; purified recombinant protein; only the motif is given.
Series [1] deals with T2, FLI1 DNA binding domain (several constructs, exact boundaries not stated) (UniProt Q01543).
T2 sequence (limits assumed): T1 sequence (limits assumed) with S20A, S22A
Nature of the series: binding assay. The conditions noted are these: data not shown; method not stated; purified recombinant protein; only the motif is given.

Turning to “GGAA (double strand) [ETS consensus DNA with central GGAA (only core printed)]”, the binding result (with ERG DNA binding domain; with EWS-FLI1; in series [1]) was “binds” each time.
“GGAA (double strand) [GGAA repeat DNA (only repeat unit printed)]”: the binding result (with EWS-FLI1; in series [1]) was “binds” each time.
